{"sequences": {"note": "By UniProt entry, the sequences of proteins in these tests, tags left out.", "UniProt Q9Y3D8": "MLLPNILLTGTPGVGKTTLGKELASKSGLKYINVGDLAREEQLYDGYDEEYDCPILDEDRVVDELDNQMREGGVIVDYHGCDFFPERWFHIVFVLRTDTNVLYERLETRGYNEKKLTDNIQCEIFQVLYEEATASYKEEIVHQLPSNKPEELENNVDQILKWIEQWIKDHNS", "UniProt Q8N726": "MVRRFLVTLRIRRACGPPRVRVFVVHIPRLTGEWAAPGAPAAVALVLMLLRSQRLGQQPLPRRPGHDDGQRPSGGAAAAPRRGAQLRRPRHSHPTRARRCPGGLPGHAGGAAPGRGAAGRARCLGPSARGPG"}, "source": "paper PMC10476552", "biological_target": "Flag-hCINAP (human coilin-interacting nuclear ATPase protein) (human) (UniProt Q9Y3D8)", "test": "affinity purification with mass spectrometry; IP-mass spectrometry using HEK293T cells transfected with Flag-hCINAP", "note": "Results are given in words; binding and its absence hold for the method and conditions named. Binding seen in cells or lysates may run through a third protein. Here binding means that the protein was enriched with, or labelled near, the bait; the list need not be complete."}
{"substance": "endogenous p14ARF (from UniProt Q8N726 1-132)", "values": [{"measurement": "binding", "result": "binds"}]}
